Assay results as given in PubChem BioAssay AID588590 (National Center for Advancing Translational Sciences (NCATS), 2011).
Among all 390,000 compounds or so, about 4,000 (1%) were called active. This list was built around the results that the source calls inconclusive (neither active nor inactive); the mix of calls is not that of the screen. Calls follow the shape of the dose curve; as a rule, active = well fitted inhibition curve with a large enough effect; inconclusive = small, poorly fitted or top-dose-only effect, or another doubt; inactive = no such curve, though single readings can be large or run the other way. Potencies beside an inconclusive call are fits to weak or partial responses and may not hold up.

Protein sequences, listed by entry. Tags and fused reporters are not part of them. Lines headed by an entry give the natural chain unless they say otherwise; changes in a name come on top.
UniProt Q9UNA4: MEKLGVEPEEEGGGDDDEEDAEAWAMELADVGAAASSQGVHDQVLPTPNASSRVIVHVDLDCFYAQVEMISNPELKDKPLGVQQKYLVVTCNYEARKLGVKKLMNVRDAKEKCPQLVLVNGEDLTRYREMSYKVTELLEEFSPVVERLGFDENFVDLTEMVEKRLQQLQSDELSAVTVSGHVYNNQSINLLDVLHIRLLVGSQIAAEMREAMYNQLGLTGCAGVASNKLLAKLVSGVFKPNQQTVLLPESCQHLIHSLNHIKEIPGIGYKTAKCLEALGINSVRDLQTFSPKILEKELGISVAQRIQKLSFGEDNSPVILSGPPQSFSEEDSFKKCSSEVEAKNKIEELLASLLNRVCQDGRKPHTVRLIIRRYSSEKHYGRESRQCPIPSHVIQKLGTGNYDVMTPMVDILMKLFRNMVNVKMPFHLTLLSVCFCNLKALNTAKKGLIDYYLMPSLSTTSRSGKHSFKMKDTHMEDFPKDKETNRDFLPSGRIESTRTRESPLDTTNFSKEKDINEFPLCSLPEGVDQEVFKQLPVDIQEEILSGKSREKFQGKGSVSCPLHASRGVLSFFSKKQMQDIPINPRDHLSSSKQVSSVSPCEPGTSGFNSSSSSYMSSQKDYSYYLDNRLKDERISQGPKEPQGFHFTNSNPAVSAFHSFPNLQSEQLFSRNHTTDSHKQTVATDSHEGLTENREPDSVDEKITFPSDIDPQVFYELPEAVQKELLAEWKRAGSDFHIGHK

What follows are molecules tested against DNA polymerase iota (Homo sapiens) (UniProt Q9UNA4) (assay: qHTS for Inhibitors of Polymerase Iota). Details: Pol iota fluorescent replication assay, 10 min; series mostly up to 115 µM; activity, negative = inhibition: at the top concentration.
How it was run: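 Fluorescent replication assay read twice, at 0 min and 10 min after adding 50 nM (final) substrate. Enzyme (10 nM) and compounds were first incubated 15 min at room temperature; enzyme-free buffer wells were negative controls.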
Potency is read from the fitted curve at half-maximal effect.

SMILES | Potency | activity, negative = inhibition
CCn1c(SCC(=O)Nc2ccc3c(c2)OCO3)nc2c(c1=O)SC(C)C2 (stereo not given) | inconclusive: 39.8 µM [inhibitor, partial curve, poor fit] | 
Nc1ncnc2c1nc(Cl)n2[C@@H]1O[C@H](CO)[C@@H](O)[C@@H]1O |  | inactive: -2.81%
O=C(O)c1ccc(NS(=O)(=O)c2ccc3c(c2)C2C=CCC2C(c2ccccc2F)N3)cc1 (stereo not given) | inconclusive: 14.1 µM [inhibitor, full curve, poor fit] | 
N#CCC(=O)N/N=C/c1ccc(N2N=C(c3ccccc3)CC2c2ccccc2)cc1 (stereo not given) | inconclusive: 50.1 µM [inhibitor, partial curve] | 
CCOC(=O)N1C(=O)[C@](c2ccc(Cl)cc2)(C(C)C)N1C(=O)OCC | inconclusive: 12.6 µM [inhibitor, full curve, poor fit] | 
Cc1cc2nc(-c3ccc(NC(=O)c4cccnc4)cc3)oc2cc1C | inconclusive: 25.1 µM [inhibitor, single point] | 
CCN1CCN(C2=NC(=O)/C(=C/c3ccc(C)o3)S2)CC1 | inconclusive: 11.2 µM [inhibitor, full curve, poor fit] | 
CCOC(=O)c1ccc(NC(=O)c2oc3c(c2C)-c2nn(Cc4ccccc4Cl)cc2CC3)cc1 | inconclusive: 56.2 µM [inhibitor, partial curve, poor fit] | 
Cc1ccc2sc(C)[n+](CCC(C)S(=O)(=O)[O-])c2c1 (stereo not given) | inconclusive: 14.1 µM [inhibitor, partial curve, poor fit] | 
CC(CCc1ccccc1)NC(=O)Cn1ncc2c3ccccc3n(Cc3ccccc3)c2c1=O (stereo not given) |  | inactive: -0.0445%
COc1cccc(CNC(=O)CCn2cnc3ccccc3c2=O)c1 | inconclusive: 89.1 µM [inhibitor, single point] | 
C=C1CCN(C(CC(C)C)C(=O)Nc2nc3ccc(Cl)cc3s2)S(=O)(=O)c2ccccc21 (stereo not given) |  | inactive: 2.46%
COc1cccc(-c2cc(C(F)(F)F)n3ncc(C(=O)N4CCc5ccccc5C4)c3n2)c1 | inconclusive: 89.1 µM [inhibitor, single point] | 
COc1ccccc1/C=C1\SC(=S)N(NS(=O)(=O)c2ccccc2)C1=O |  | inactive: -18.6%
CN1C(=O)c2ccc(C(=O)Nc3ccc(Br)cn3)cc2C1=O | inconclusive: 39.8 µM [inhibitor, single point] | 
Cc1ccccc1Nc1nc(N)c(C(=O)c2ccccc2Cl)s1 |  | inactive: 2.82%
Cc1cc2oc(C(=O)N(Cc3ccc(N(C)C)cc3)Cc3ccco3)c(C)c2cc1Cl | inconclusive: 14.1 µM [inhibitor, partial curve, poor fit] | 
COc1cc2cc(C(N)=O)c(N)nc2cc1OC | inconclusive: 28.2 µM [inhibitor, partial curve] | 
COCCN(C(=O)CC1CCCCC1)c1c(N)n(CC(C)C)c(=O)[nH]c1=O | inconclusive: 2.82 µM [inhibitor, full curve, poor fit] | 
COc1cc(/C=C2/C(=N)N3C(SC)=NSC3=NC2=O)ccc1OC(=O)c1ccco1 | inconclusive: 17.8 µM [inhibitor, partial curve, poor fit] | 

Fetched by structure from the list above, three records:
SMILES | Potency | activity, negative = inhibition
Cc1cc2nc(-c3ccc(NC(=O)c4cccnc4)cc3)oc2cc1C | inconclusive: 25.1 µM [inhibitor, single point] | 
Cc1ccc2sc(C)[n+](CCC(C)S(=O)(=O)[O-])c2c1 (stereo not given) | inconclusive: 14.1 µM [inhibitor, partial curve, poor fit] | 
CCn1c(SCC(=O)Nc2ccc3c(c2)OCO3)nc2c(c1=O)SC(C)C2 (stereo not given) | inconclusive: 39.8 µM [inhibitor, partial curve, poor fit] | 

Additional results:

SMILES | Potency | activity, negative = inhibition
CCOc1ccc(CCNC(=O)Cn2c(-c3cccs3)cc3ccccc32)cc1OCC | inconclusive: 100 µM [inhibitor, single point] | 
O=C1CCN(CCc2ccccc2)CCN1[C@H](COc1ccccc1)Cc1ccccc1 | inactive | 
COc1cc(C(=O)C(=O)c2cc(OC)c(O)c(OC)c2)cc(OC)c1O | inconclusive: 100 µM [inhibitor, single point] | 
Cc1ccc(CNc2ccc3nnc(-c4ccccc4)n3n2)cc1 |  | inactive: 27.5%
Oc1cc2c(cc1O)C1c3ccc(O)c(O)c3OCC1(O)C2 (stereo not given) | active: 7.94 µM | 
CCOC(=O)Cn1cc(/C=C/[N+](=O)[O-])c2ccccc21 | inconclusive: 25.1 µM [inhibitor, single point] | 
COC(=O)c1cc(NC(=O)C2CC=CCC2C(=O)O)cc(C(=O)OC)c1 (stereo not given) | inconclusive: 70.8 µM [inhibitor, partial curve] | 
O=c1cc(-c2ccccc2)oc2ccc(Br)cc12 | inconclusive: 100 µM [inhibitor, single point] | 
Nc1ccc(S(=O)(=O)NCC(=O)OC2CCOC2=O)cc1[N+](=O)[O-] (stereo not given) | inconclusive: 79.4 µM [inhibitor, partial curve, poor fit] | 
Cc1c(CC(=O)N2CCN(C(=O)C3COc4ccccc4O3)CC2)c(=O)oc2cc(O)cc(O)c12 (stereo not given) | inconclusive: 79.4 µM [inhibitor, partial curve, poor fit] | 
CC1=C(c2ccc(C)c(C)c2)S(=O)(=O)N(Cc2ccc(C(=O)Nc3cc(F)ccc3F)cc2)C1=O |  | inactive: -5.08%
CC(=O)c1ccc(OC(=O)CCc2nc3ccccc3s2)cc1 | inconclusive: 7.94 µM [inhibitor, partial curve, poor fit] | 
COC(=O)C1=C(C)NC(=S)NC1c1ccc(-c2cc(Cl)ccc2Cl)o1 (stereo not given) | inconclusive: 17.8 µM [inhibitor, single point] | 
Cc1ccc(C(CNS(=O)(=O)c2ccc([N+](=O)[O-])cc2)N2CCN(C)CC2)cc1 (stereo not given) | inconclusive: 89.1 µM [inhibitor, partial curve, poor fit] | 
O=C(/C=C/c1ccc(Cl)cc1)N1CCN(CCN2C(=O)c3cccc4cccc(c34)C2=O)CC1 | inconclusive: 89.1 µM [inhibitor, partial curve, poor fit] | 
CCOC(=O)NC(=O)CSc1nc2ccccc2[nH]1 |  | inactive: 26.9%
Cc1nc(NC(=O)c2cc3c(s2)CCCCC3)sc1C(=O)N(C)C | inconclusive: 112 µM [inhibitor, partial curve, poor fit] | 
Cc1cc(C)c(S(=O)(=O)N2CCOC2CNC(=O)C(=O)NCCc2ccc(S(N)(=O)=O)cc2)c(C)c1 (stereo not given) | inconclusive: 0.708 µM [inhibitor, partial curve, poor fit] | 
CCN(CC)c1ccc(/C=C/c2ccccn2)cc1 | inconclusive: 56.2 µM [inhibitor, partial curve, poor fit] | 
O=C(Oc1c(Cl)cc(Cl)c2cccnc12)c1cccs1 | inconclusive: 28.2 µM [inhibitor, single point] | 

SMILES | Potency | activity, negative = inhibition
Cc1ccc(-c2n[nH]c(=S)n2/N=C/C=C\c2ccccc2[N+](=O)[O-])cc1 | inconclusive: 39.8 µM [inhibitor, single point] | 
Cn1c(=O)c(C#N)c(-c2ccc(F)cc2)c2cc(C(=O)c3cc(Cl)cc(Cl)c3O)cnc21 | inconclusive: 44.7 µM [inhibitor, partial curve, poor fit] | 
CCCCOc1ccc(C(=O)NCC(=O)NCCOc2ccccc2OC)cc1 | inconclusive: 100 µM [inhibitor, single point] | 
O=C(O)c1cc(Cl)ccc1NC(=O)C1CCCO1 (stereo not given) | inconclusive: 70.8 µM [inhibitor, partial curve] | 
COc1cc(CNC(=O)c2ccc(NC(=O)N3CCCCc4ccccc43)cc2)cc(OC)c1OC | inconclusive: 89.1 µM [inhibitor, single point] | 
COc1n[nH]c(C(=O)Nc2nc3ccccc3s2)c1[N+](=O)[O-] | inconclusive: 14.1 µM [inhibitor, partial curve, poor fit] | 
COc1ccc(S(=O)(=O)NCC2CCC(C(=O)O)CC2)cc1 (stereo not given) | inconclusive: 28.2 µM [inhibitor, partial curve, poor fit] | 
CCOCCOc1nc2c(c(=O)n(C)c(=O)n2C)n1Cc1ccc(C)cc1 | inconclusive: 39.8 µM [inhibitor, single point] | 
Cc1ccc(NC(=O)c2nc(S(=O)(=O)Cc3ccc(F)cc3)ncc2Cl)cc1C | inconclusive: 79.4 µM [inhibitor, partial curve, poor fit] | 
CCOC(=O)c1[nH]c(C)c(CCC(=O)N2CCN(c3cc(C)ccc3C)CC2)c1C |  | inactive: -16.4%
O=C(c1cccs1)N1CCCc2cc(NS(=O)(=O)c3cc(F)ccc3F)ccc21 | inconclusive: 39.8 µM [inhibitor, single point] | 
COC(=O)[C@]1(C)N[C@H](CN(C)S(=O)(=O)c2ccc(C(C)(C)C)cc2)[C@@H]2C(=O)N(C)C(=O)[C@@H]21 | inconclusive: 15.8 µM [inhibitor, partial curve, poor fit] | 
O=c1cc[nH]c2cc(C(F)(F)F)ccc12 | inconclusive: 100 µM [inhibitor, single point] | 
Cc1c(Cl)cccc1NC(=S)NCCC(C)C | inconclusive: 35.5 µM [inhibitor, single point] | 
O=C(O)c1ccc(-c2nc3ccccc3s2)o1 | inconclusive: 70.8 µM [inhibitor, single point] | 
CC1N(C)c2cc(NC(=O)c3ccco3)ccc2C1(C)C (stereo not given) | inconclusive: 28.2 µM [inhibitor, single point] | 
O=C(/C=C/c1ccc([N+](=O)[O-])cc1)NCC1CCCO1 (stereo not given) | inconclusive: 7.08 µM [inhibitor, full curve, poor fit] | 
COc1cc2c(NC3CCN(C(C)C)CC3)nc(N3CCCN(C)CC3)nc2cc1OCCOCCN(C)C | inconclusive: 0.631 µM [inhibitor, full curve, poor fit] | 
COc1ccc(C(=O)NCc2ncccc2C)cc1OC1CCN(C(C)=O)CC1 | inconclusive: 100 µM [inhibitor, single point] | 
Cc1ccc(C(=O)Nc2ccc(N3CCN(C(=O)c4cccs4)CC3)cc2)c(Cl)c1 | inconclusive: 44.7 µM [inhibitor, single point] | 
